62 compounds from PubChem BioAssay AID445 (National Center for Advancing Translational Sciences (NCATS), 2006) can be followed below.

The structures appear in SMILES notation. This is one part of the list. The main result of the screen is listed elsewhere. These columns were measured beside it and carry no call. Most of these compounds were active or inconclusive in the main read-out, so they are no random draw. The note in brackets gives the kind of curve behind each potency; many fits are weak.

This experiment is described as follows: IkB Signaling. Conditions: ABC-DLBCL IkBa-CBG/CBR dual luciferase ratio (green luciferase fused to IkBa over red control in OCI-Ly3 lymphoma cells), 4 h. The method, boiled down:
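Luminescence ratio of IκBα-fused green versus native red beetle luciferase in OCI-Ly3 cells, 4 h post-doxycycline with compound; red signal alone, scaled from basal (0%) to zero light (-100%), flagged nonspecific or cytotoxic effects.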

Where [1] appears, read: measured here: control luc red channel unless noted.

Regarding `c1ccc(CNc2ccc3ccccc3n2)nc1`, the half-maximal activity concentration (AC50) under setting [1] was 20 µM [falling, partial curve].
Take `CC(C)(C)OC(=O)N1CCC(c2c(C(=O)N3CCN(c4ccccn4)CC3)cnn2-c2ccc(F)cc2F)CC1`: under setting [1], the AC50 was 12.6 µM [falling, partial curve].
With `CCn1c(=O)c2cc(C(=O)NCc3cc(OC)ccc3OC)sc2c2ccccc21`, under setting [1], the AC50 is 7.94 µM [falling, full curve].
Turning to `COc1ccc(NC(=O)C2CCCN(S(=O)(=O)c3c(C)[nH]c(=O)[nH]c3=O)C2)cc1OC` (stereo not drawn), the concentration at half-maximal activity (AC50) under setting [1] was 0.251 µM [rising, full curve, poor fit].
On to `Cc1cc(C)nc(N2CCCC(C(=O)Nc3ccc4nc(C)c(C)nc4c3)C2)n1` (stereo not drawn), for which, under setting [1], the AC50 was 12.6 µM [falling, partial curve].
Same read-out and setting: the result for `COc1ccc(NC(=O)c2oc3ccccc3c2NC(=O)c2cc(=O)c3cc(Cl)ccc3o2)cc1` reads 2.51 µM [rising, partial curve].
`COC(=O)c1c(NC(=O)c2ccc(OC)cc2OC)sc2c1CCCCC2`: the AC50 under setting [1] was 39.8 µM [falling, single point].
As to `O=c1oc(-c2cccnc2)nc2ccccc12`, under setting [1], the concentration at half-maximal activity (AC50) is 15.8 µM [falling, partial curve].
As to `Cc1cccc(C(=O)Nc2cc3c(cc2C)n(C)c(=O)n3C)c1`, the AC50 under setting [1] was 20 µM [rising, partial curve].
For the compound `O=C(Nc1sc2c(c1C(=O)NCc1ccco1)CCCC2)c1cc(=O)c2cc(Cl)ccc2o1`, the half-maximal activity concentration (AC50) under setting [1] was 10 µM [falling, partial curve].
As to `O=C(CCCCn1c(=O)c2ccccc2n(Cc2cccc(F)c2)c1=O)NCCc1ccccc1`, the half-maximal activity concentration (AC50) under setting [1] was 0.126 µM [rising, full curve, poor fit].
On to `CC(=O)N1CCc2c(sc3c2c(=O)n(-c2ccccc2)c(=O)n3CC(=O)c2ccccc2)C1`, for which the AC50 under setting [1] was 5.01 µM [rising, single point].
`Clc1ccccc1CNCC1CCC(CNCc2ccccc2Cl)CC1` (stereo not drawn): the AC50 under setting [1] is 39.8 µM [falling, single point].
As to `CC(=O)Nc1ccc(NC(=O)c2ccc3c(c2)N(Cc2cccc(Cl)c2)C(=O)c2ccccc2S3=O)cc1` (stereo not drawn), the AC50 under setting [1] is 6.31 µM [falling, partial curve].
The same measure, in the same setting: the result for `COCc1nc2ccccc2n1Cc1ccc(C(C)(C)C)cc1` reads 31.6 µM [falling, single point]; that for `CCCCN(C)CC(O)Cn1cc(/C=C/C(=O)c2ccc(Br)cc2)c2ccccc21` (stereo not drawn), 12.6 µM [falling, partial curve]; that for `CC(=O)c1cccc(NC(=O)c2sc(-n3nc(C)c(Cc4ccccc4)c3C)nc2C)c1`, 0.1 µM [falling, full curve, poor fit].
As for `Cc1cc(=O)[nH]c2nnc(SCc3ccc(Cl)cc3Cl)n12`, under setting [1], the AC50 is 3.16 µM [rising, partial curve, poor fit].
As to `Cc1ccc2c(CNC3CCCCC3)c(C(=O)O)n(Cc3ccc(F)cc3)c2c1`, the AC50 under setting [1] was 20 µM [falling, single point].
On the same count and under the same terms, the result for `COCCNC(=O)c1ccc2c(c1)N(Cc1cc(C)ccc1C)C(=O)c1ccccc1S2=O` (stereo not drawn) reads 31.6 µM [falling, partial curve, poor fit].
Turning to `Cc1ccc2nc(COc3cccc(NC(=O)Nc4ccc(C)c(Cl)c4)c3)cc(=O)n2c1`, the half-maximal activity concentration (AC50) under setting [1] is 2.51 µM [falling, full curve].
Consider `COc1cccc(-c2cc(C(=O)NCCc3ccc(OC)c(OC)c3)no2)c1`, for which, under setting [1], the AC50 is 1.58 µM [rising, full curve, poor fit].
On the same count and under the same terms, the result for `O=C(Nc1ccc(F)c(Cl)c1)c1ccc2c(Cl)c3c(nc2c1)CCCC3` reads 0.0501 µM [falling, full curve]; that for `O=C(N1CCN(Cc2ccc3c(c2)OCO3)CC1)C12CC3CC(CC(C3)C1)C2`, 25.1 µM [falling, partial curve]; that for `Cc1cc(C)cc(-n2c(SCC(=O)Nc3ccccc3)nc3c(oc4ccccc43)c2=O)c1`, 12.6 µM [falling, partial curve].
As for `COc1ccc(-c2noc(CSc3ccccc3)n2)cc1OC`, the half-maximal activity concentration (AC50) under setting [1] was 39.8 µM [falling, single point].
For `Cc1ccc(-n2nc3c(=O)n(C(C)C(=O)NCc4ccc(OC(C)C)cc4)nc(C)c3c2C)cc1` (stereo not drawn), the AC50 under setting [1] is 12.6 µM [falling, partial curve].
On to `COc1ccc2c(CNCc3cccs3)c(C(=O)O)n(Cc3ccc(F)cc3)c2c1`, for which the AC50 under setting [1] was 10 µM [falling, partial curve].
Turning to `CC(C)Cn1cc(NC(=O)N2CCN(c3ccc(F)cc3)CC2)c2ccccc2c1=O`, under setting [1], the concentration at half-maximal activity (AC50) was 39.8 µM [falling, single point].
`CC(=O)c1ccc(NC(=O)CSC2=Nc3ccccc3N=C(c3ccc(F)cc3)C2)cc1`: the AC50 under setting [1] was 25.1 µM [falling, single point].
As to `COc1cc(OC)cc(-c2nc3nc(C)c(CCC(=O)Nc4cc(C)cc(C)c4)c(C)n3n2)c1`, the AC50 under setting [1] was 12.6 µM [falling, partial curve].
As for `O=C(c1ccc2c(Cl)c3c(nc2c1)CCCC3)N1CCN(c2ccc(Cl)cc2)CC1`, under setting [1], the AC50 is 25.1 µM [falling, single point].
Same read-out and setting: the same measure for `O=C(Nc1nc2c(F)cc(F)cc2s1)c1ccc(S(=O)(=O)N2CCc3ccccc32)cc1`: 0.794 µM [falling, full curve]; for `CCN1C(C(=O)c2ccccc2)=C(OC(=O)COc2ccc(C)cc2)c2ccccc2S1(=O)=O`: 12.6 µM [falling, partial curve]; for `COC(=O)c1ccc(N2C(=O)Cc3cc(OC)c(OC)cc3C2c2ccc(F)cc2)cc1` (stereo not drawn): 20 µM [falling, partial curve].
Turning to `COc1ccc(CCCc2nnc(SCC(=O)Nc3cccc(F)c3C)o2)cc1`, the half-maximal activity concentration (AC50) under setting [1] was 20 µM [falling, partial curve].
For `CCOCCc1nn2c(=O)cc(COC(=O)c3ccccc3OC)nc2s1`, the AC50 under setting [1] is 15.8 µM [falling, partial curve].
The same measure, in the same setting: the same measure for `CCCC(=O)Nc1cccc(OCc2cc(=O)n3cccc(C)c3n2)c1`: 20 µM [falling, partial curve].
In the case of `CCn1c(C)c(C)c2cc(C(=O)NCC(C)c3ccccc3)ccc21` (stereo not drawn), under setting [1], the AC50 is 39.8 µM [falling, single point].
Same read-out and setting: the same measure for `COc1ccc(N(CC(=O)Nc2cccc(Cl)c2)S(=O)(=O)c2c(C)[nH]c(=O)[nH]c2=O)cc1`: 25.1 µM [falling, single point]; for `Cc1cccc(OCc2nc(CC(=O)Nc3ccc(Cl)cc3)cs2)c1`: 6.31 µM [falling, single point].
Consider `Cc1cccc(C)c1-n1ncc(C(=O)NCCCN2CCC(C)CC2)c1C1CCN(C(=O)OC(C)(C)C)CC1`, for which, under setting [1], the half-maximal activity concentration (AC50) is 20 µM [falling, partial curve].
In the case of `Cc1cc(Nc2ccc(Br)cc2)nc(C)n1`, the AC50 under setting [1] was 3.16 µM [rising, partial curve].
Regarding `CCOC(=O)c1cnc2c(ccc3ccccc32)c1Nc1ccc(C(C)=O)cc1`, the half-maximal activity concentration (AC50) under setting [1] is 10 µM [falling, partial curve].
Take `O=C(Nc1ccc(N2CCCC2)c(Cl)c1)c1ccc(Br)o1`: the concentration at half-maximal activity (AC50) under setting [1] is 12.6 µM [falling, partial curve].
For the compound `COc1cccc(CSc2nc3ccncc3n2CC(=O)Nc2ccc(OC)c(OC)c2OC)c1`, the AC50 under setting [1] is 25.1 µM [falling, single point].
As for `O=S(=O)(c1ccc(Cl)cc1)c1nc(-c2cccs2)oc1N1CCCCC1`, under setting [1], the half-maximal activity concentration (AC50) was 39.8 µM [falling, partial curve].
On to `Cc1cc(C)nc(-n2nc(C)c3c2N(Cc2ccccc2F)C(=O)CC3c2ccc(Cl)cc2)n1` (stereo not drawn), for which the AC50 under setting [1] is 15.8 µM [falling, partial curve].
As to `CCOC(=O)c1sc2ccccc2c1S(=O)(=O)NCc1ccccc1OC`, under setting [1], the concentration at half-maximal activity (AC50) was 31.6 µM [falling, single point].
Consider `Cn1ncc2c(N3CCN(c4ccc(F)cc4)CC3)ncnc21`, for which the half-maximal activity concentration (AC50) under setting [1] was 39.8 µM [falling, single point].
For the compound `COc1cc(-c2nc3sccn3c2Nc2c(C)cccc2C)ccc1O`, the AC50 (measured here: IkB-luc green channel) was 31.6 µM [rising, partial curve] and the AC50 (measured here: control luc red channel) is 25.1 µM [rising, single point].
On to `COc1ccc2nc3oc(C(=O)N4CCC(C(N)=O)CC4)cc3cc2c1`, for which the AC50 under setting [1] was 6.31 µM [falling, partial curve].
Still for that read-out and setting: the result for `CC(C)(C)c1ccc(C(=O)CSc2ncn[nH]2)cc1` reads 25.1 µM [falling, partial curve].
For the compound `CC(=O)N1CCCC1c1nc2ccccc2n1Cc1ccccc1Cl` (stereo not drawn), the AC50 under setting [1] is 7.94 µM [falling, partial curve].
Consider `CCS(=O)(=O)N1CCCc2cc(C(=O)Nc3cccc(C(C)=O)c3)ccc21`, for which the AC50 under setting [1] is 25.1 µM [falling, single point].
Take `COc1cc(NC(=O)c2cccc(Cl)c2Cl)ccc1NC(=O)c1cc2ccccc2o1`: the AC50 under setting [1] is 0.794 µM [falling, full curve].
Take `CCOc1ccc(C(=O)C2CCN(CC(=O)Nc3ccccc3N3CCOCC3)CC2)cc1`: the concentration at half-maximal activity (AC50) under setting [1] was 25.1 µM [falling, partial curve].
`CCC(=O)N1CCc2cc(Br)cc(S(=O)(=O)CCC(=O)Nc3cccc(Cl)c3)c21`: the AC50 under setting [1] is 31.6 µM [falling, single point].
Turning to `Clc1ccc(-c2nnn3c2nc(NC2CCCCC2)c2ccccc23)cc1`, the AC50 under setting [1] was 0.631 µM [falling, full curve].
With `CCOc1ccc(C(=O)N(Cc2ccc(C(C)C)cc2)Cc2ccco2)cc1`, the AC50 under setting [1] is 39.8 µM [falling, single point].
Consider `O=C(CCN1c2ccccc2Sc2ccccc21)OCC(=O)N1CCN(C(=O)c2ccco2)CC1`, for which the AC50 under setting [1] is 25.1 µM [falling, partial curve].
Regarding `CCOC(=O)C1CCCCN1C(=O)CCc1c(C)nc2cc(-c3ccccc3)nn2c1C` (stereo not drawn), under setting [1], the AC50 was 1.26 µM [falling, partial curve].
